No constants are given. Whether binding was seen depends on the method and setting. Binding seen in cells or lysates may run through a third protein. A yes stands for co-enrichment or nearness to the bait. Other partners may have been found. Sequences can lack the tags named with a protein.
Biological target: T1, 3xFLAG-MINA R125G/K126G (NoLS mutant) (UniProt Q8IUF8)
T1 sequence: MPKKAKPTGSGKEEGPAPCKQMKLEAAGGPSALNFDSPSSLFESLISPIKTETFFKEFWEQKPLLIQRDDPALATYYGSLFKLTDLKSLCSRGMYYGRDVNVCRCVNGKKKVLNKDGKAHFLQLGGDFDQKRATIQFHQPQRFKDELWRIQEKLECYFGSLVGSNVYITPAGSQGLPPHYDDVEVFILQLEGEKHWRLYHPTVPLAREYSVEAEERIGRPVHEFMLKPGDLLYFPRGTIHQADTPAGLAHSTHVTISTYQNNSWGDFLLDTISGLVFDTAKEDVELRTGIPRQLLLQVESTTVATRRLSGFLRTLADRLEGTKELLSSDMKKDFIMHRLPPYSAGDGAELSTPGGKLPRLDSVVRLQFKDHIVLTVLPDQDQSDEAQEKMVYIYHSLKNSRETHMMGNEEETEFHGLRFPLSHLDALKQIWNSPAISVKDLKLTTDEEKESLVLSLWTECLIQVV
Assay: affinity purification with mass spectrometry

B1: endogenous MPP6 (membrane palmitoylated protein 6) (protein, UniProt Q9NZW5 1-540)
chain: MQQVLENLTELPSSTGAEEIDLIFLKGIMENPIVKSLAKAHERLEDSKLEAVSDNNLELVNEILEDITPLINVDENVAELVGILKEPHFQSLLEAHDIVASKCYDSPPSSPEMNNSSINNQLLPVDAIRILGIHKRAGEPLGVTFRVENNDLVIARILHGGMIDRQGLLHVGDIIKEVNGHEVGNNPKELQELLKNISGSVTLKILPSYRDTITPQQVFVKCHFDYNPYNDNLIPCKEAGLKFSKGEILQIVNREDPNWWQASHVKEGGSAGLIPSQFLEEKRKAFVRRDWDNSGPFCGTISSKKKKKMMYLTTRNAEFDRHEIQIYEEVAKMPPFQRKTLVLIGAQGVGRRSLKNRFIVLNPTRFGTTVPFTSRKPREDEKDGQAYKFVSRSEMEADIKAGKYLEHGEYEGNLYGTKIDSILEVVQTGRTCILDVNPQALKVLRTSEFMPYVVFIAAPELETLRAMHKAVVDAGITTKLLTDSDLKKTVDESARIQRAYNHYFDLIIINDNLDKAFEKLQTAIEKLRMEPQWVPISWVY
For B1, the binding was “binds”.

From article doi:10.1101/2023.03.15.532818
